The list shows only some results of the screen, not a fair sample: it gathers tests that were run many times, whatever their T/C, doses with no T/C, and many T/C values between a quarter and a half above the control. Other doses and runs of a compound stand elsewhere. T/C is the treated group as % of the vehicle group. Some entries give survivors of the animals treated and no T/C: the source files T/C as zero there, which appears to mark a toxic dose or a test without result, not a measured value. Some doses without a T/C left all or most animals alive at the check, yet need not have been tolerated: the source hardly ever lists a survival T/C far under the control, and the zero likely stands for such cases as well. Counts of survivors are from the toxicity check (mostly the fifth day) where no day follows; animals may have died later. Schedules are NCI's codes, read here as Q, the interval in days (D) or hours (H), X, the number of doses. Some entries were tested several times; their values stand side by side, smallest first. Where survival is the endpoint, this PubChem deposit counts one and a half times the control or more as active, and values a quarter to a half above the control carry no call in these data; other NCI protocols may use other cut-offs.
Tested on: P388 leukemia ip, CD2F1 mice, survival T/C
Test: NCI In Vivo Anticancer Drug Screen. Data for tumor model P388 Leukemia (intraperitoneal) in CD2F1 (CDF1) mice
Conditions: T/C endpoint: median survival time, higher T/C = longer survival
[1] = dose: 200.0 mg/kg/injection, schedule: Q01DX001 (ip), vehicle: saline with Tween-80
[2] = dose: 400.0 mg/kg/injection, schedule: Q01DX001 (ip), vehicle: saline with Tween-80
[3] = dose: 50.0 mg/kg/injection, schedule: Q01DX009 (ip), vehicle: saline
[4] = dose: 100.0 mg/kg/injection, schedule: Q04DX003 (ip), vehicle: saline with Tween-80
[5] = dose: 200.0 mg/kg/injection, schedule: Q01DX005 (ip), vehicle: saline
[6] = dose: 200.0 mg/kg/injection, schedule: Q01DX005 (ip), vehicle: Klucel (hydroxypropylcellulose) (HPC)
[7] = dose: 400.0 mg/kg/injection, schedule: Q04DX003 (ip), vehicle: saline + Tween-80 + alcohol
[8] = dose: 6.25 mg/kg/injection, schedule: Q01DX005 (ip), vehicle: saline with Tween-80
[9] = dose: 100.0 mg/kg/injection, schedule: Q01DX009 (ip), vehicle: gum acacia
[10] = dose: 200.0 mg/kg/injection, schedule: Q01DX005 (ip), vehicle: saline with Tween-80
[11] = dose: 200.0 mg/kg/injection, schedule: Q01DX009 (ip), vehicle: gum acacia
[12] = dose: 200.0 mg/kg/injection, schedule: Q04DX003 (ip), vehicle: saline with Tween-80
[13] = dose: 100.0 mg/kg/injection, schedule: Q01DX009 (ip), vehicle: saline
[14] = dose: 200.0 mg/kg/injection, schedule: Q01DX009 (ip), vehicle: saline

Q: How did the T/C (dose: 20.0 mg/kg/injection, schedule: Q04DX003 (ip), vehicle: water) turn out when `CCCCCCCC(=O)N/N=C(\CO)[C@]1(O)Cc2c(O)c3c(c(O)c2[C@@H](OC2CC(N)C(O)C(C)O2)C1)C(=O)c1c(OC)cccc1C3=O` (some centres not stated) was run?
A: 135 % of control

Q: What about the T/C (dose: 40.0 mg/kg/injection, schedule: Q04DX003 (ip), vehicle: water, evaluated on day 30) of the same molecule?
A: 133 % of control

Q: And the T/C (dose: 40.0 mg/kg/injection, schedule: Q04DX003 (ip), vehicle: water, evaluated on day 45)?
A: 138 % of control

Q: What about the T/C (dose: 120.0 mg/kg/injection, schedule: Q04DX003 (ip), vehicle: water) of the same molecule?
A: 142 % of control

Q: Which results are given for `CS/C(Nc1ccccc1)=C1\CCCn2c1nc1ccccc1c2=O`?
A: survivor count [1]: 5 of 6; survivor count [2]: 2 of 6

Q: `CCC1(O)CC2CN(CCc3c([nH]c4ccccc34)C(C(=O)OC)(c3cc4c(cc3OC)N(C=O)C3C(O)(C(=O)OC)CC5(CC)C=CCN6CCC43C65)C2)C1` (configuration not stated) was tested. Which survivor count (dose: 16.0 mg/kg/injection, schedule: Q01DX001 (ip), vehicle: saline) did it give?
A: 3 of 5

Q: What about the survivor count (dose: 32.0 mg/kg/injection, schedule: Q01DX001 (ip), vehicle: saline) of the same molecule?
A: 0 of 5 and 3 of 5

Q: How did the survivor count [3] turn out when `CCCCCCC[CH2][Sn]([CH2]CCCCCCC)([S]CC(=O)OCCCC)[S]CC(=O)OCCCC` was run?
A: 4 of 6

Q: With `CCCCCCCCCc1cccc(N2C(N)=NC(N)=NC2(C)C)c1` as the molecule, how does the survivor count (dose: 15.0 mg/kg/injection, schedule: Q01DX005 (ip), vehicle: saline with Tween-80) read?
A: 3 of 6

Q: And the survivor count (dose: 30.0 mg/kg/injection, schedule: Q01DX005 (ip), vehicle: saline with Tween-80)?
A: 3 of 6

Q: And the survivor count (dose: 60.0 mg/kg/injection, schedule: Q01DX005 (ip), vehicle: saline with Tween-80)?
A: 3 of 6

Q: What about the survivor count (dose: 120.0 mg/kg/injection, schedule: Q01DX005 (ip), vehicle: saline with Tween-80) of the same molecule?
A: 0 of 6

Q: What about the survivor count (dose: 240.0 mg/kg/injection, schedule: Q01DX005 (ip), vehicle: saline with Tween-80) of the same molecule?
A: 0 of 6

Q: What does the source list for `O=S1(=O)CS/C(=N\C(=S)N(c2ccccc2)c2ccccc2)N1c1ccccc1`?
A: survivor count (dose: 25.0 mg/kg/injection, schedule: Q04DX003 (ip), vehicle: saline with Tween-80): 6 of 6; survivor count (dose: 50.0 mg/kg/injection, schedule: Q04DX003 (ip), vehicle: saline with Tween-80): 6 of 6; survivor count [4]: 6 of 6

Q: How did the survivor count [5] turn out when `CCCCCN(CCCCC)CC(C)(O)CNc1cc(OC)cc2cccnc12` (configuration not stated) was run?
A: 0 of 5

Q: `CCOC(=O)c1c(C(=O)OCC)c(C)n(/N=N/n2c(C)c(C(=O)OCC)c(C(=O)OCC)c2C)c1C` was tested. Which survivor count [6] did it give?
A: 5 of 5

Q: With `Cc1coc2c3c(ccc12)OC(C)(C)C=C3` as the molecule, how does the survivor count [2] read?
A: 6 of 6

Q: What does the source list for `Cc1c(N)nc(C(CC(N)=O)NCC(N)C(N)=O)nc1C(=O)NC(C(=O)NC(C)C(O)C(C)C(=O)NC(C(=O)NCCc1nc(-c2nc(C(=O)NCCC[S+](C)C)cs2)cs1)C(C)O)C(OC1OC(CO)C(O)C(O)C1OC1OC(CO)C(O)C(OC(N)=O)C1O)c1cnc[nH]1` (configuration not stated)?
A: T/C (dose: 1.0 mg/kg/injection, schedule: Q01DX009 (ip), vehicle: saline): 101, 108, 110, 111 % of control; T/C (dose: 2.0 mg/kg/injection, schedule: Q01DX009 (ip), vehicle: saline): 100, 108, 110, 118, 119 % of control; T/C (dose: 4.0 mg/kg/injection, schedule: Q01DX009 (ip), vehicle: saline): 109, 110, 116, 121, 126 % of control; T/C (dose: 8.0 mg/kg/injection, schedule: Q01DX009 (ip), vehicle: saline): 108, 115, 118, 119, 142 % of control; T/C (dose: 16.0 mg/kg/injection, schedule: Q01DX009 (ip), vehicle: saline): 100, 109, 112, 115, 148 % of control

Q: How did the survivor count [7] turn out when `CC12CCC(=O)C1C=CC2=O` (configuration not stated) was run?
A: 3 of 6

Q: Which survivor count (dose: 400.0 mg/kg/injection, schedule: Q04DX003 (ip), vehicle: saline with Tween-80) does the source give for `Oc1ccc(CCNCc2ccc3c(c2)OCO3)cc1` here?
A: 0 of 6

Q: Which results are given for `CCNC(=O)OCc1ccco1`?
A: survivor count [3]: 0 of 6; survivor count (dose: 100.0 mg/kg/injection, schedule: Q01DX009 (ip), vehicle: saline with Tween-80): 0 of 6; survivor count (dose: 200.0 mg/kg/injection, schedule: Q01DX009 (ip), vehicle: saline with Tween-80): 0 of 6

Q: Which survivor count [3] does the source give for `c1ccc(-c2cc[n+]3c4c2ccc2c(-c5ccccc5)cc[n+](c24)CC3)cc1` here?
A: 1 of 6

Q: Which T/C (dose: 1.5 mg/kg/injection, schedule: Q01DX005 (ip), vehicle: saline with Tween-80) does the source give for `CO/N=C1\CC(C)N2C(=O)C(C(C)C)NC(=O)C(NC(=O)c3c4nc5c(C(=O)NC6C(=O)NC(C(C)C)C(=O)N7C(C)CC(O)C7C(=O)N(C)CC(=O)N(C)C(C(C)C)C(=O)OC6C)ccc(C)c5oc-4c(C)c(=O)c3N)C(CO)OC(=O)C(C)N(C)C(=O)CN(C)C(=O)C12` (configuration not stated) here?
A: 136 % of control

Q: What about the T/C (dose: 3.13 mg/kg/injection, schedule: Q01DX005 (ip), vehicle: saline with Tween-80) of the same molecule?
A: 136 % of control

Q: What about the T/C [8] of the same molecule?
A: 148 % of control

Q: And the survivor count (dose: 50.0 mg/kg/injection, schedule: Q01DX005 (ip), vehicle: saline with Tween-80)?
A: 1 of 6

Q: With `F[B-](F)(F)F` as the molecule, how does the T/C [9] read?
A: 129 % of control

Q: Which results are given for `CCc1ccc(-n2c(C)nc3[nH]cc(C)c3c2=N)cc1`?
A: survivor count (dose: 100.0 mg/kg/injection, schedule: Q01DX005 (ip), vehicle: Klucel (hydroxypropylcellulose) (HPC)): 1 of 6; survivor count [6]: 0 of 6

Q: How did the survivor count [7] turn out when `c1ccc(-c2csc3nc(N4CCCCC4)cn23)cc1` was run?
A: 3 of 6

Q: With `CC(C)c1nc2ccc(Cl)cc2[nH]1` as the molecule, how does the survivor count [10] read?
A: 2 of 5

Q: With `OC1(C2NCCc3ccccc32)CCN(CCc2ccccc2)CC1` (configuration not stated) as the molecule, how does the survivor count (dose: 200.0 mg/kg/injection, schedule: Q01DX009 (ip), vehicle: Klucel (hydroxypropylcellulose) (HPC)) read?
A: 0 of 6

Q: With `CC(=O)c1c(O)c(C)c(O)c2c1OC1=Cc3c(c(C)nn3C)C(=O)C12C` (configuration not stated) as the molecule, how does the T/C (dose: 12.5 mg/kg/injection, schedule: Q01DX009 (ip), vehicle: gum acacia) read?
A: 101, 102, 110, 125 % of control

Q: And the T/C (dose: 25.0 mg/kg/injection, schedule: Q01DX009 (ip), vehicle: gum acacia)?
A: 94, 100, 112, 119 % of control

Q: And the T/C [9]?
A: 89, 94, 103, 108 % of control

Q: What about the T/C [11] of the same molecule?
A: 86, 99, 107 % of control

Q: And the survivor count [11]?
A: 6 of 6

Q: `CCNC(C)(C)C(SS)c1ccc(C(F)(F)F)cc1` (configuration not stated) was tested. Which survivor count [12] did it give?
A: 5 of 6

Q: With `CC(=O)OCC(=O)[C@@]1(O)CC[C@H]2[C@@H]3CCC4=CC(=O)CC[C@]4(C)[C@@]3(Cl)[C@@H](O)C[C@@]21C` as the molecule, how does the T/C [4] read?
A: 127 % of control

Q: What about the T/C [12] of the same molecule?
A: 140 % of control

Q: For `C=C=C(C)C(c1ccccc1)N(C)C` (configuration not stated), which survivor count [5] is on record?
A: 0 of 6

Q: What does the source list for `O=S(=O)(c1cnccc1N1CCN(CCCl)CC1)N1CCCCC1`?
A: T/C [3]: 97, 105, 111, 120 % of control; survivor count [13]: 5 of 6; survivor count [14]: 0 of 6

Q: Which survivor count (dose: 1.56 mg/kg/injection, schedule: Q01DX009 (ip), vehicle: saline) does the source give for `CCCCCCCCCCCCCCCCC[N+]1(CC)CCCCC1` here?
A: 1 of 6

Q: What about the survivor count (dose: 3.12 mg/kg/injection, schedule: Q01DX009 (ip), vehicle: saline) of the same molecule?
A: 6 of 6

Q: And the survivor count (dose: 6.25 mg/kg/injection, schedule: Q01DX009 (ip), vehicle: saline)?
A: 1 of 6

Q: What about the survivor count (dose: 12.5 mg/kg/injection, schedule: Q01DX009 (ip), vehicle: saline) of the same molecule?
A: 0 of 6

Q: What about the survivor count [3] of the same molecule?
A: 0 of 6

Q: What about the survivor count [13] of the same molecule?
A: 0 of 6

Q: And the survivor count [14]?
A: 0 of 6

Q: How did the survivor count [1] turn out when `COc1ccc2c(c1)C1CN(Cc3ccccc31)C2` (configuration not stated) was run?
A: 2 of 6

Q: And the survivor count [2]?
A: 0 of 6

Q: For `CCCCCCCCCc1cc(=O)[nH]c(=S)[nH]1`, which survivor count (dose: 240.0 mg/kg/injection, schedule: Q01DX005 (ip), vehicle: Klucel (hydroxypropylcellulose) (HPC)) is on record?
A: 6 of 6

Q: Which survivor count (dose: 400.0 mg/kg/injection, schedule: Q01DX009 (ip), vehicle: water) does the source give for `CC1=CC(C)=NC(N)=NN1` here?
A: 3 of 6

Q: `CC(=O)Nc1ccc(SSc2ccc(NC(C)=O)c3cccnc23)c2ncccc12` was tested. Which survivor count [8] did it give?
A: 5 of 5

Q: And the survivor count (dose: 100.0 mg/kg/injection, schedule: Q01DX005 (ip), vehicle: saline with Tween-80)?
A: 5 of 5

Q: And the survivor count [10]?
A: 3 of 5

From PubChem BioAssay AID330 (DTP/NCI, 2004)
